Results are given in words; binding and its absence hold for the method and conditions named. Some results given as binding are weak or reduced against the parent protein; the word gives no strength.
Key:
[1] = target: T1, rice cyclin-dependent kinase Cdc2-Os1 (rice, UniProt P29618 1-294); assay: yeast two-hybrid library screen, Cdc2-Os1 bait (pBD-Gal4), growth on SD-TLH, SD-TLA and SD-TLAH
T1 construct: The Gal4 parts are not written into the chain

Sequences of proteins named here, by UniProt entry; tags and fusion partners are left off.
UniProt P29618: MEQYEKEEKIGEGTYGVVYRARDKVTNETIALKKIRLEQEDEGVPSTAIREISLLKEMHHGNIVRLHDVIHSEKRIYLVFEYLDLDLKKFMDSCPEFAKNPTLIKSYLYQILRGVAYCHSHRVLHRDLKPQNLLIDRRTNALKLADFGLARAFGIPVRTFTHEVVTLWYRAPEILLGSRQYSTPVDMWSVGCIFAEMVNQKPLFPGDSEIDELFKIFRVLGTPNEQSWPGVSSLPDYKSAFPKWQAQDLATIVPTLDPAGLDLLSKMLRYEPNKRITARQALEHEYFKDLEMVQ

[2] = target: T1, rice cyclin-dependent kinase Cdc2-Os1; assay: yeast two-hybrid library screen of Example 4, Cdc2-Os1 bait
[3] = target: T1, rice cyclin-dependent kinase Cdc2-Os1; assay: yeast two-hybrid, Cdc2-Os1 bait (pBDGal4), OsICK2 prey (pADGal4), growth on Leu-Trp-His- medium
[4] = target: T1, rice cyclin-dependent kinase Cdc2-Os1; assay: yeast two-hybrid, reciprocal orientation: OsICK2 bait (pBDGal4), Cdc2-Os1 prey (pADGal4)

Binder | binding [1] | binding [2] | binding [3] | binding [4]
partial OsICK4 clone obtained by two-hybrid screening (missing the 5' end) (protein) PRRRATAAAATADATATESAEAEVSFGGENVLELEAMERNTRETTPCSLIRDPDTISTPGSTTRRSHSSSHCKVQTPVRHNIIPASAELEAFFAAEEQRQRQAFIDKYNFDPVNDCPLPGRFEWVKLD | binds | binds | – | –
full-length rice OsICK2 protein (protein) MGKYMRKFRGATGEELAAMEVTQVVGVRTRSRSAAAAGATTTKVQAASAASTRRRKALLPTAVVGTTRRDGGSCYLQLRSRMLFMAPPRPAPAARAPVVAEAAGSGNGAAAHAAAGLSRCSSTASSVDAAAQDRSLACRSDVAEAGSEHVPEGSASDSASGRDRERRETTPSSFLPGEVSDLESDLAGGQKRSRPLPSAATASAQQATRPKIPPAAEIEAFFAAAEEAEAKRFAAKYNFDVVRGVPLDAGRFEWTPVVSSRS | – | – | binds | binds
